Literature values, collected in patent US20160067311A1, “USE OF ELSIGLUTIDE TO TREAT GASTROINTESTINAL MUCOSITIS INCLUDING CHEMOTHERAPY-INDUCED DIARRHEA” (Helsinn Healthcare SA, priority 2014, published 2016).
Some of these results come from one statement about several compounds together.

Test system: cancer patients
Details: colorectal cancer patients, data from the late 1990s; cited from earlier work

Compound: O=c1[nH]cc(F)c(=O)[nH]1 [5-fluorouracil]
- CID incidence: 50-80%

Compound: CCc1c2c(nc3ccc(OC(=O)N4CCC(N5CCCCC5)CC4)cc13)-c1cc3c(c(=O)n1C2)COC(=O)[C@]3(O)CC [irinotecan]
- CID incidence: 50-80%
